Reference: article PMC4263151
Results are given in words; binding and its absence hold for the method and conditions named. In cells and extracts the contact can be indirect. A result given as binding can be weak or reduced; the word gives no strength.

By UniProt entry, the sequences of proteins in these tests, tags left out. Where a name states a change or a piece, a line headed by the entry shows the natural chain unless it says otherwise.
UniProt Q00839: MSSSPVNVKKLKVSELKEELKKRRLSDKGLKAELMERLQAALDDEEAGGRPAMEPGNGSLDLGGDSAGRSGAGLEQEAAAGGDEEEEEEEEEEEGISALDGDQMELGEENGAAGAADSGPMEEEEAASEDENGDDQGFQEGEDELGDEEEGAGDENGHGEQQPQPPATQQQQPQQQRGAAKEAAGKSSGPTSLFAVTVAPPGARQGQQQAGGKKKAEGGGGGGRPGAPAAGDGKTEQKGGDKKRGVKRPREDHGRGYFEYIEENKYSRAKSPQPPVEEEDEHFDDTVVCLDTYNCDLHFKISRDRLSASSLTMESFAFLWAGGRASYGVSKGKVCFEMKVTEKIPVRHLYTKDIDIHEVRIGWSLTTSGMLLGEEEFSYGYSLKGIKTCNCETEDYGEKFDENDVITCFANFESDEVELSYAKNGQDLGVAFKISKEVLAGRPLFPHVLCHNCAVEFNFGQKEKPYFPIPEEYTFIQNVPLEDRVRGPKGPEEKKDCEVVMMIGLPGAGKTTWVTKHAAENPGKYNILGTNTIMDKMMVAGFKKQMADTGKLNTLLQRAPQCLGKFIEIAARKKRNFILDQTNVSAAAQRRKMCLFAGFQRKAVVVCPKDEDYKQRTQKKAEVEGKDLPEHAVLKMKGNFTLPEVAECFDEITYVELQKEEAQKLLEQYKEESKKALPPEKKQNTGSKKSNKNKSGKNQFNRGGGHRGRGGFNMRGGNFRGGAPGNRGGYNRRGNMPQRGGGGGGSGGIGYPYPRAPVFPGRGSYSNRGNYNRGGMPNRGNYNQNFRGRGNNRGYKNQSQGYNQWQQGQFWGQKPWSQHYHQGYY
UniProt P35226: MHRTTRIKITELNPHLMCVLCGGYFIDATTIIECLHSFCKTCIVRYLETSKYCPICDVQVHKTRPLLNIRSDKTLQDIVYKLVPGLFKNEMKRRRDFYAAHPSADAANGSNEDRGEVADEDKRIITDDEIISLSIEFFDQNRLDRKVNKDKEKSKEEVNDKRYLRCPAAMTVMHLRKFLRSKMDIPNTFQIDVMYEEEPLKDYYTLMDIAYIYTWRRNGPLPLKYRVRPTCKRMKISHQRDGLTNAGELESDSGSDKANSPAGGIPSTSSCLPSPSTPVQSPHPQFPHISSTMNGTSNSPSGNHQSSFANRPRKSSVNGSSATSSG

How the values were obtained:
[1] = biological target: FLAG-tagged SAFAΔRGG (RNA-binding-deficient mutant) (UniProt Q00839); experiment: co-IP; lysates of HEK293 cells overexpressing FLAG-tagged wild-type or mutant SAFA; IP with antibody to FLAG, blots for FLAG, BMI1 and EZH2; ratios by densitometry
[2] = biological target: FLAG-tagged SAFAΔSAF (DNA-binding-deficient mutant) (UniProt Q00839); experiment: as above

binding [1]: binds | binding [2]: binds
Substance: BMI1, endogenous in HEK293 cells (from UniProt P35226 1-326)
